The whole screen tested about 52,000 sequences, of which about 210 (0.4%) were called active.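 The calls were made as follows: active = gene whose silencing raises cell survival under the drug, median off-target-corrected z-score across its silencing RNAs 2 or more; inactive = the rest.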 Some of the results follow.
assay: Resistance to Poly (ADP-Ribose) Polymerase inhibitor: Gene Identification via Genome-wide siRNA Screen; settings: mouse BRCA2 R2336H ES cells, olaparib, CellTiter-Glo viability; stronger effect = higher value
Method in brief: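 Mouse BRCA2 R2336H ES cells were reverse-transfected with siRNA (20 nM final), treated at 48 h with 500 nM olaparib, and read by CellTiter-Glo after 72 h. Scores: MAD-based z per siRNA, median per gene, seed off-target correction.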

Row | Sequence | z-score
1 | GGUGGACAAGGCAAUACAGTT against Mmp20 | inactive: -0.672
2 | GGGACGAUUACCCUUAUUGTT against 1700084J12Rik | inactive: -0.0279
3 | GGGAAAAAAAAAAAUCACCTT against 4831426I19Rik | inactive: -0.292
4 | CCAGACGAUCUCAUGAUGUTT against 4931407G18Rik | inactive: -0.353
5 | AUGAAAGCAUUCUAAGAAGTT against LOC434320 | inactive: 0.452
6 | GGUUCAGACAAGCAUCUAGTT against Sbp | inactive: -0.786
7 | CGGGUUUUUCCAGUAGAUUTT against Ebag9 | inactive: 0.593
8 | GGAGGCAAAAAUGAUGCUATT against Slpi | inactive: 0.655
9 | GGAUUACAUUUGUUUUACCTT against E130304F04Rik | inactive: 1.15
10 | GCUAUGACAGUUAUGCUACTT against Cirbp | inactive: 2.6
11 | CCCACUGUGAAGAGAGGCATT against Xlr3b | inactive: -1.96
12 | GGUAAUAGAGGAGAAGAAUTT against Phc1 | inactive: -1.31
13 | GCUAAUUCUCAGAACUCUATT against Tas2r130 | inactive: 0.0941
14 | GGUGUGGACCCUAAGCUUUTT against C530028O21Rik | inactive: -0.894
15 | GCUUCGUGUGCUUUACCUGTT against 6430402H13Rik | inactive: 0.851
16 | GCUAGCUAGAACAAGUAAATT against Slmap | inactive: -0.317
17 | GGCCGUACAUCAACAUUACTT against C1qtnf6 | inactive: -0.927
18 | GGAACAGAGAGUGGAGCUUTT against Rnd1 | inactive: -1.16
19 | GCAACGUGGUCUAUGAAUUTT against Disp2 | inactive: 0.352
20 | GGAUUACCCAUUUGUUCCUTT against Adam4 | inactive: 0.149
21 | GGAUGUGGUUUUCACUGACTT against Cat | inactive: 1.87
22 | GGCUGCUCAUAUUGGUCAATT against Sphk2 | inactive: -0.235
23 | GGCAUCUUUCAUAAAACCGTT against 2610204G22Rik | inactive: -0.767
24 | GGACUUCAAGGACUUCUACTT against Crtap | inactive: 0.0967
25 | GGGACUUAUGUACAACUUCTT against Idua | inactive: 0.129
26 | GGUACAGUGCAUCGACAUGTT against Eng | inactive: -0.836
27 | CGUGCUCAUAAUUUUGAACTT against 2600014C01Rik | inactive: -0.0242
28 | AGCAUCCUAAAUUCAAAAATT against Try10l | inactive: 1.03

From no. 12 to 13, copied from above:
Row | Sequence | z-score
12 | GGUAAUAGAGGAGAAGAAUTT against Phc1 | inactive: -1.31
13 | GCUAAUUCUCAGAACUCUATT against Tas2r130 | inactive: 0.0941

Reference: PubChem BioAssay AID1347423 (Functional Genomics Laboratory (NCATS/FGL), 2020)
